Reference: publication PMC11277750
No constants are given. Whether binding was seen depends on the method and setting. Binding seen in cells or lysates may run through a third protein. Binding calls can cover weak binding; strength is not graded here.

Amino acid sequences for entries named in this document (tags omitted). A change or cut given only in a name is not applied to a line headed by its entry.
UniProt Q80TN5: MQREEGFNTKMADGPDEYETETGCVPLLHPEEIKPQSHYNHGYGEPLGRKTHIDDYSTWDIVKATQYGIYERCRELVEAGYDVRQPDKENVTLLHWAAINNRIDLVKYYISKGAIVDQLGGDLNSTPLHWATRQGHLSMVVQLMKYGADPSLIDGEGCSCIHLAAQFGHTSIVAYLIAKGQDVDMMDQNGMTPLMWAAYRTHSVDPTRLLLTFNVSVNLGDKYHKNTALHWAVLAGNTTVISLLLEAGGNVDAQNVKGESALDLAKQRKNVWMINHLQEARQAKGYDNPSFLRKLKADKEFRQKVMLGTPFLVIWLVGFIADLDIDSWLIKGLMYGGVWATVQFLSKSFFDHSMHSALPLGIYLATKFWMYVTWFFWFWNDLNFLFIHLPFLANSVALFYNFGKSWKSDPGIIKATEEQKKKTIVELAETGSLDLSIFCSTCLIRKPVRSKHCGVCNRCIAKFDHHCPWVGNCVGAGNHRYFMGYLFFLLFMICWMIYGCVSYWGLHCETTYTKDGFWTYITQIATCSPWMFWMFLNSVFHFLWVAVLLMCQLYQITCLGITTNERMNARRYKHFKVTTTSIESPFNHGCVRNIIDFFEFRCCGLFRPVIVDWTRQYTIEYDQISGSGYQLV
UniProt O15105: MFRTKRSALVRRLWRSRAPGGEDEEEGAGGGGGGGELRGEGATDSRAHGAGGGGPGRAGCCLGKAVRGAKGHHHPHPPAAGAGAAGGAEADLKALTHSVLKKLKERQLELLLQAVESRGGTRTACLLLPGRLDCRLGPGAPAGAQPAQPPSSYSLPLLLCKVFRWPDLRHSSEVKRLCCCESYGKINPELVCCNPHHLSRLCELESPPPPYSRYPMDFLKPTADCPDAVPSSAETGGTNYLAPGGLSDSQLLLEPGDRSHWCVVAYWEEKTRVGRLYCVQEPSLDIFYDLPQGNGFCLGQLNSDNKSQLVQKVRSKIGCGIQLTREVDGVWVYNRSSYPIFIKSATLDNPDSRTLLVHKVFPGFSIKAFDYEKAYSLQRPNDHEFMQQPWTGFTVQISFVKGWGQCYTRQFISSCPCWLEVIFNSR

Target: HA-zDHHA17 (catalytically inactive C467A zDHHC17 mutant) (UniProt Q80TN5)
Test: co-IP; HEK293T cells transfected with HA-zDHHC17 constructs and Flag-Smad7 constructs, with or without 5 ng/ml TGF-β1 for 30 min; lysis in 1% Triton X-100, 10% glycerol, 20 mM Tris-HCl pH 7.5, 150 mM NaCl; IP with an HA antibody or control IgG on Dynabeads overnight, IB with Flag or HA antibodies

- binding: binds
Substance: Flag-tagged wt Smad7 (from UniProt O15105 1-426)
